# Results: the supplement of paper PMC7666118
# Amino acid sequences for entries named in this document (tags omitted). A change or cut given only in a name is not applied to a line headed by its entry.
# UniProt O75575: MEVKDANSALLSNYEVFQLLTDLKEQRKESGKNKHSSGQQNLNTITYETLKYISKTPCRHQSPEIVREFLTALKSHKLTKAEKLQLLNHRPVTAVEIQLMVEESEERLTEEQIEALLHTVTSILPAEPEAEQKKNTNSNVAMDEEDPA
# UniProt Q16630, whole entry: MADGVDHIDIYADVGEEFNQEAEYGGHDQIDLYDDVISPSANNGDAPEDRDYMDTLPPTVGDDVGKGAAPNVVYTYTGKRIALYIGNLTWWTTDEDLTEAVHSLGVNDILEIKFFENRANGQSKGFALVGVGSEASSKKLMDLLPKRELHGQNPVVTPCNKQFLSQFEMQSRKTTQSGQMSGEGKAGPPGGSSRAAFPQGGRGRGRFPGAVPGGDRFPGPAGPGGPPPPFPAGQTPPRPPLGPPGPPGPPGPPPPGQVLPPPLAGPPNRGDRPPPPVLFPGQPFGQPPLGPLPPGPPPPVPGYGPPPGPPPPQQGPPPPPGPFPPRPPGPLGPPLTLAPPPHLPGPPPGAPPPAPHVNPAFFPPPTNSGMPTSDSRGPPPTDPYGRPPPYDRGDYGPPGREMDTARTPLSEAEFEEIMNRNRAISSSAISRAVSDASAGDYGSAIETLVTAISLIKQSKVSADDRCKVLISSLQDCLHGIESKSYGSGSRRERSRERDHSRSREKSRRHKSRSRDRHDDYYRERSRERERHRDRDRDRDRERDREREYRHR
# UniProt O43143: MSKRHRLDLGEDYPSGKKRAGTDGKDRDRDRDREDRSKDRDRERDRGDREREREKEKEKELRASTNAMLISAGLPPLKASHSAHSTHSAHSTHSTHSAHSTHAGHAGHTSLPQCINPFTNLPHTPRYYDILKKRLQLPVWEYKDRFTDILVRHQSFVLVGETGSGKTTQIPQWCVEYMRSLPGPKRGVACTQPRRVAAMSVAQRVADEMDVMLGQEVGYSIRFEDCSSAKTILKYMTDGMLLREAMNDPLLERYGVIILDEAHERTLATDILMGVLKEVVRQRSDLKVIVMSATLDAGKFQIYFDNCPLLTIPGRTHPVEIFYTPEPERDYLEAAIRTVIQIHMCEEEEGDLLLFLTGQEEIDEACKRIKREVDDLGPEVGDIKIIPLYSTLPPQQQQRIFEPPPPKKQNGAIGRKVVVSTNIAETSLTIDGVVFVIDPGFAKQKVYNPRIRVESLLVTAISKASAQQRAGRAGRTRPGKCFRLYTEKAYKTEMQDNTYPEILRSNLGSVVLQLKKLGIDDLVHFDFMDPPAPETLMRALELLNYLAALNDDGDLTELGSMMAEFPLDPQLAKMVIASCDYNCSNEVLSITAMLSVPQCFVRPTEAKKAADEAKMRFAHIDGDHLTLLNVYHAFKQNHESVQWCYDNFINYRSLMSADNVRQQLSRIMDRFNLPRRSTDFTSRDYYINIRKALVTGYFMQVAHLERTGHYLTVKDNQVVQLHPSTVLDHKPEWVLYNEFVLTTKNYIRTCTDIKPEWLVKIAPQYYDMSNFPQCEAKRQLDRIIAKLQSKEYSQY
# UniProt Q9Y315: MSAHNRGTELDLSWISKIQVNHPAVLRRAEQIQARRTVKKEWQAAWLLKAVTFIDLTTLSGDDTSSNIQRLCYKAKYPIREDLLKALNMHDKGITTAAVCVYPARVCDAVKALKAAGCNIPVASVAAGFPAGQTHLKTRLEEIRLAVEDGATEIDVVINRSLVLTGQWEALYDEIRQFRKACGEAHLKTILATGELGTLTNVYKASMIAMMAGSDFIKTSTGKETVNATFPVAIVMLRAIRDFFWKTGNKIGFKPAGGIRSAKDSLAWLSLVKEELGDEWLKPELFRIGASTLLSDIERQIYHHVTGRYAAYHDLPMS
# UniProt Q9UBW8: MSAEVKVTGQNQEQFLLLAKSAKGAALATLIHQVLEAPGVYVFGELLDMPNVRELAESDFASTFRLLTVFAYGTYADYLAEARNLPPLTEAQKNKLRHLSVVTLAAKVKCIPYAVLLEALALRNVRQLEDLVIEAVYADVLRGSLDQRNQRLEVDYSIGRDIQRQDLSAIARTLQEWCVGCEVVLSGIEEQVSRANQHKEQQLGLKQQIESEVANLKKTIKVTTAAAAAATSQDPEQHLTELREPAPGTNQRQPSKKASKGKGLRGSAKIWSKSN
# UniProt P49366: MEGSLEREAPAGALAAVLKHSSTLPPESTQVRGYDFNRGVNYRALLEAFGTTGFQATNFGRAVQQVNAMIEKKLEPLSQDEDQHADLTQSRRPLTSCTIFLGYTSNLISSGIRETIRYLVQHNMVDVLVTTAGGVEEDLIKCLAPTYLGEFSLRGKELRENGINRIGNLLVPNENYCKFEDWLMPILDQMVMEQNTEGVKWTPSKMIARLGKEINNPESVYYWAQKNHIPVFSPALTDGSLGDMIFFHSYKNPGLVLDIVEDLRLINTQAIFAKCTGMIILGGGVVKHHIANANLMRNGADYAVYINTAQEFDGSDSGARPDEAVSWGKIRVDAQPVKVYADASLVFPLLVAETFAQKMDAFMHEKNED
# UniProt Q9UJU6: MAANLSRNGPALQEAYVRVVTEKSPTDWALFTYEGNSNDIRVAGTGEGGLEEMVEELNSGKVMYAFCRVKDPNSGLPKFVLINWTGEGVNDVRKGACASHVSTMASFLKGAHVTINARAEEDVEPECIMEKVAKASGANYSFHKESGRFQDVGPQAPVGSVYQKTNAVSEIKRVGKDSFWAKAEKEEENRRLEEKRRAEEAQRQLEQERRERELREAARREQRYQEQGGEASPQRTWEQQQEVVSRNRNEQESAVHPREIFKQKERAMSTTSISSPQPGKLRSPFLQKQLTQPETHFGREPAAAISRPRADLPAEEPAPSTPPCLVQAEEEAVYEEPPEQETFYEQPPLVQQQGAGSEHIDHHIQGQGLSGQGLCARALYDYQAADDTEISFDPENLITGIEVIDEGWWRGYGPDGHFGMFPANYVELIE
# UniProt Q13618, whole entry: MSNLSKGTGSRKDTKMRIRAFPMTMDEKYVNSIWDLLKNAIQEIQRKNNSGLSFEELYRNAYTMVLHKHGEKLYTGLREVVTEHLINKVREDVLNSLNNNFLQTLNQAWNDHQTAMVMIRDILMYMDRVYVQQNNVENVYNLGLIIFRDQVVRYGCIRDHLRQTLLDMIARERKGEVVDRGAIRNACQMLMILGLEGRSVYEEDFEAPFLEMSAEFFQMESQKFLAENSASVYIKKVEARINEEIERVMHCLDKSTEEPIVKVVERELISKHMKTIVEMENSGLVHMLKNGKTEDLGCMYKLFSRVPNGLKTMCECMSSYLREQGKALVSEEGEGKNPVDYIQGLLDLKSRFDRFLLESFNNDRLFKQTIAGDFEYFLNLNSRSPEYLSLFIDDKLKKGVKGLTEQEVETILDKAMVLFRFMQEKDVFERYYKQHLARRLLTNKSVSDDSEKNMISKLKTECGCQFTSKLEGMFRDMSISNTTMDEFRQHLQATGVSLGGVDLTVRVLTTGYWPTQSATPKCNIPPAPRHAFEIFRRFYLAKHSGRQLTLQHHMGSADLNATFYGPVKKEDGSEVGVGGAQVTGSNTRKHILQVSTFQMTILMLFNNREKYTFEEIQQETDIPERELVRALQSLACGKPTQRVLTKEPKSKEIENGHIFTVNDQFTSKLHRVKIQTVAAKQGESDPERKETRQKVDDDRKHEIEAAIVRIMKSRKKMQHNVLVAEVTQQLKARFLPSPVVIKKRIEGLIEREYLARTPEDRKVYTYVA
# UniProt Q9H5Z1: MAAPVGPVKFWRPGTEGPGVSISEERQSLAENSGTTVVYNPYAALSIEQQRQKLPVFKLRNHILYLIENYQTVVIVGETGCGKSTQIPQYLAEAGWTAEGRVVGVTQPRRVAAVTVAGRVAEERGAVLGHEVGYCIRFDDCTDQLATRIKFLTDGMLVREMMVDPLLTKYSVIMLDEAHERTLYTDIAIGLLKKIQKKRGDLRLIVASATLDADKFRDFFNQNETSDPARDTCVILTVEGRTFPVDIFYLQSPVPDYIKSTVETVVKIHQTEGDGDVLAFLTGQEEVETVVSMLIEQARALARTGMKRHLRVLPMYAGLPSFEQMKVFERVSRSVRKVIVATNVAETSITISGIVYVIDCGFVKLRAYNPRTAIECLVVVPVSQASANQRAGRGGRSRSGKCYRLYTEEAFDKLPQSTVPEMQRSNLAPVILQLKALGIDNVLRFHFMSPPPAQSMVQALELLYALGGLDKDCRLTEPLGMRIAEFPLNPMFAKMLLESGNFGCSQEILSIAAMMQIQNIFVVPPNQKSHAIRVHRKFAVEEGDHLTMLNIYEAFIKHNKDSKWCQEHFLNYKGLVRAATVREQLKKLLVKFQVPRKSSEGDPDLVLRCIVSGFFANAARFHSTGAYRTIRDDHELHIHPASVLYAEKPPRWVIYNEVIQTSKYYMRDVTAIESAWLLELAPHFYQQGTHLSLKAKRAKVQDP
# UniProt A2RUS2: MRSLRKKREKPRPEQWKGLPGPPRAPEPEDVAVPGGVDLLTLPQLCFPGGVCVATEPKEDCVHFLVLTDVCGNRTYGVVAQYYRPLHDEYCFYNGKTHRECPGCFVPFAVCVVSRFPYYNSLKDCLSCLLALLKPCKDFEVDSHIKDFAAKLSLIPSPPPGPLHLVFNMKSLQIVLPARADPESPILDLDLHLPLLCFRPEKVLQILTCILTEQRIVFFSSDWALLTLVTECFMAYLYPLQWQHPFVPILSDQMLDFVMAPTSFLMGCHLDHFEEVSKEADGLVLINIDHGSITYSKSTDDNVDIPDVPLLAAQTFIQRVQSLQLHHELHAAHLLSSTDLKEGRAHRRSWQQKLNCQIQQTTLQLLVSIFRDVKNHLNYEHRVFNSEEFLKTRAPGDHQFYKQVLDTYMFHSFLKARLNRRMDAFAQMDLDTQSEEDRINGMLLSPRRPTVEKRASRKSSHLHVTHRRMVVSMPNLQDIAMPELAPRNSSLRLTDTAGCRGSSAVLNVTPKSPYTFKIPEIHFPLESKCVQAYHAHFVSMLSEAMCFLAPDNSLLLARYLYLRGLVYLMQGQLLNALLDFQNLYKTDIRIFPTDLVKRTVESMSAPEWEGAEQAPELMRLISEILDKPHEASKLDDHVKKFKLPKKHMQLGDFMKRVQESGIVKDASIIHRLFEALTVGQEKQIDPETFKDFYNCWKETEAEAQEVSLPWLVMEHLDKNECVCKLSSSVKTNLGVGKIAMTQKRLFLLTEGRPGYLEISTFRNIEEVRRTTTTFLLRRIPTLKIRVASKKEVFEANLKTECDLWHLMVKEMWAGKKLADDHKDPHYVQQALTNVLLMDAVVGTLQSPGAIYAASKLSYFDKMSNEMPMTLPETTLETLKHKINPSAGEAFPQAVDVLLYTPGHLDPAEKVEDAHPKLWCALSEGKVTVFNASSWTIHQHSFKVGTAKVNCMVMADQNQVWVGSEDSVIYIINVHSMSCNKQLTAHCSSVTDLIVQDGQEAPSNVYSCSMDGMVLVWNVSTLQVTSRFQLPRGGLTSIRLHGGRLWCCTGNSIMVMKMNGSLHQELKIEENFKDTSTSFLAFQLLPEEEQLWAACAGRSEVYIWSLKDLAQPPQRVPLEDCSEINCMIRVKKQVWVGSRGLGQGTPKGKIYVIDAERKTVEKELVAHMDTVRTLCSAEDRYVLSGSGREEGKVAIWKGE
# UniProt Q96HD1: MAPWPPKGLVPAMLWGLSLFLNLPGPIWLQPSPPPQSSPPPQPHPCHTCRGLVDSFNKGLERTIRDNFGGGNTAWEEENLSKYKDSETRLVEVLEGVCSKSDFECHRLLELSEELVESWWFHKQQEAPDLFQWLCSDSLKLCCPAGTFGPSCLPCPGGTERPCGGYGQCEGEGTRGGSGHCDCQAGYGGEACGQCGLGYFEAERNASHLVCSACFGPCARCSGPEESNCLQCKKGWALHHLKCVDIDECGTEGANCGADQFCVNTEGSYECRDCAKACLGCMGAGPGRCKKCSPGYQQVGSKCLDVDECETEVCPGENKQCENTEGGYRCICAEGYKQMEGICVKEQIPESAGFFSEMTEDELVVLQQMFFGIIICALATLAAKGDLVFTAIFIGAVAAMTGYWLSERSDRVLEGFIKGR
# UniProt Q9Y6V7: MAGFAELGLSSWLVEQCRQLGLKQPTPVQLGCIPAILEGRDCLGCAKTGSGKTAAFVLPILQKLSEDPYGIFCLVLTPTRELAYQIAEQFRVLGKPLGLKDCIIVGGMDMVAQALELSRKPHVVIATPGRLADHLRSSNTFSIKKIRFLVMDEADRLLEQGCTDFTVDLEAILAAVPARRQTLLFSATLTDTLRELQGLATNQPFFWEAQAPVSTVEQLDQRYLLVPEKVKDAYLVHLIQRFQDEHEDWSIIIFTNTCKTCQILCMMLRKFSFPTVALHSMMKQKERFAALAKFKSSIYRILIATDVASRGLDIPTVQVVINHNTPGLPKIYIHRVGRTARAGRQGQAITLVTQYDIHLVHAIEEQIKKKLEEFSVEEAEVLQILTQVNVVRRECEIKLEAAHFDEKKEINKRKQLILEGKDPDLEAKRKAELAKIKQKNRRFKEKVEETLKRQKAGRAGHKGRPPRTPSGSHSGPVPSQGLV
# This is one part of the list.
# Compound: COc1ccc(Cn2ccc3ccc(C(=O)NO)cc32)cc1
# Assay: dose-dependent thermal stabilisation call (2D-TPP, DLPTP, 10% FDR) (binary (1 = stabilised)); higher = stabilised by the compound
# Conditions: system: HL-60 intact cells; concentration range 0.04-10 µM
row,Target,dose-dependent thermal stabilisation call
1,CRCP (UniProt O75575),inactive: 0
2,DENND1B (UniProt Q6P3S1),inactive: 0
3,DDX19A (UniProt Q9NUU7),inactive: 0
4,CPSF6 (UniProt Q16630),inactive: 0
5,COX4NB (UniProt O43402),inactive: 0
6,DHX15 (UniProt O43143),inactive: 0
7,CYBASC3 (UniProt Q8NBI2),inactive: 0
8,DERA (UniProt Q9Y315),inactive: 0
9,COPS7A (UniProt Q9UBW8),inactive: 0
10,DDA1 (UniProt Q9BW61),inactive: 0
11,CYB5B (UniProt O43169),inactive: 0
12,COX18 (UniProt Q8N8Q8),inactive: 0
13,CRYZL1 (UniProt O95825),inactive: 0
14,CORO1B (UniProt Q9BR76),inactive: 0
15,CTSD (UniProt P07339),inactive: 0
16,DHPS (UniProt P49366),inactive: 0
17,COX15 (UniProt Q7KZN9),inactive: 0
18,DBNL (UniProt Q9UJU6),inactive: 0
19,CXORF56 (UniProt Q9H5V9),inactive: 0

# Another view of part of the listing above:
row	Target	dose-dependent thermal stabilisation call
8	DERA (UniProt Q9Y315)	inactive: 0
9	COPS7A (UniProt Q9UBW8)	inactive: 0
10	DDA1 (UniProt Q9BW61)	inactive: 0
11	CYB5B (UniProt O43169)	inactive: 0
12	COX18 (UniProt Q8N8Q8)	inactive: 0
13	CRYZL1 (UniProt O95825)	inactive: 0
14	CORO1B (UniProt Q9BR76)	inactive: 0
15	CTSD (UniProt P07339)	inactive: 0
16	DHPS (UniProt P49366)	inactive: 0
17	COX15 (UniProt Q7KZN9)	inactive: 0
18	DBNL (UniProt Q9UJU6)	inactive: 0

# Carrying on:

row,Target,dose-dependent thermal stabilisation call
1,DCI (UniProt P42126),inactive: 0
2,CREBBP (UniProt Q92793),inactive: 0
3,DENND4A (UniProt Q7Z401),inactive: 0
4,CUL3 (UniProt Q13618),inactive: 0
5,CRNKL1 (UniProt Q9BZJ0),inactive: 0
6,COQ9 (UniProt O75208),inactive: 0
7,DHX32 (UniProt Q7L7V1),inactive: 0
8,COMMD8 (UniProt Q9NX08),inactive: 0
9,CUL4A (UniProt Q13619),inactive: 0
10,DHX35 (UniProt Q9H5Z1),inactive: 0
11,DENND3 (UniProt A2RUS2),inactive: 0
12,DENND1C (UniProt Q8IV53),inactive: 0
13,DHFR (UniProt P00374),inactive: 0
14,CXORF26 (UniProt Q9BVG4),inactive: 0
15,CRTAP (UniProt O75718),inactive: 0
16,DHRS7B (UniProt Q6IAN0),inactive: 0
17,CRELD1 (UniProt Q96HD1),inactive: 0
18,DDX49 (UniProt Q9Y6V7),inactive: 0
